Test results taken from PMC12145959.
Results are given in words; binding and its absence hold for the method and conditions named. Binding seen in cells or lysates may run through a third protein. Some entries that bind do so weakly or less than the wild type.

Legend:
[1] = molecular target: T1, mitochondrial monocarboxylate transporter 1 (mouse (endogenous in mouse skeletal muscle and C2C12 cells)) (UniProt P53986); experiment: proximity ligation; Duolink in situ proximity ligation with green detection reagents in C2C12 myotubes (differentiated five days in 2% horse serum), stained with MitoTracker Red CMXRos and Hoechst 33342, fixed; confocal microscopy
T1 sequence: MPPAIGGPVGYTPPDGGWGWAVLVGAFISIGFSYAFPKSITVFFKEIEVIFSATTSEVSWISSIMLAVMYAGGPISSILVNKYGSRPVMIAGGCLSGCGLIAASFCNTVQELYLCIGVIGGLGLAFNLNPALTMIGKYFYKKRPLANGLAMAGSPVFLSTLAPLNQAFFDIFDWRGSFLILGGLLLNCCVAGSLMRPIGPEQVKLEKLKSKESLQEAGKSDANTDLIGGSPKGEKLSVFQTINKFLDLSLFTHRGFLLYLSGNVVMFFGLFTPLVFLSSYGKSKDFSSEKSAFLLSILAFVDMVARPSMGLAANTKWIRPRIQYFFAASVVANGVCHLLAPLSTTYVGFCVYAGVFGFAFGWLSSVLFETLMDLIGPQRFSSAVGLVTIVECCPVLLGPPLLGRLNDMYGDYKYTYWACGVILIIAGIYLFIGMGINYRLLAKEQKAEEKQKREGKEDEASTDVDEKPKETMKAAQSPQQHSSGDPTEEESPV

[2] = molecular target: T1, mitochondrial monocarboxylate transporter 1 (mouse (endogenous in mouse skeletal muscle and C2C12 cells)); experiment: proximity ligation; Duolink II in situ proximity ligation (<40 nm) in fixed, permeabilised C2C12 myoblasts; mouse anti-MCT1 and rabbit anti-MPC1 antibodies; MCT1 and CD147 as positive control; red signal, confocal microscopy
[3] = molecular target: T1, mitochondrial monocarboxylate transporter 1 (mouse (endogenous in mouse skeletal muscle and C2C12 cells)); experiment: co-IP; mitochondrial fractions (100 ug) from mouse skeletal muscle in Tris-EDTA with protease and phosphatase inhibitors, without a detergent; pre-cleared with Protein G magnetic beads and rabbit IgG; primary antibodies on Protein G magnetic beads, overnight at 4 C; five washes with PBS; SDS-PAGE and immunoblotting

Measured: binding

B1: mitochondrial pyruvate carrier 1 (protein, UniProt P63030 1-109)
chain: MAGALVRKAADYVRSKDFRDYLMSTHFWGPVANWGLPIAAINDMKKSPEIISGRMTFALCCYSLTFMRFAYKVQPRNWLLFACHVTNEVAQLIQGGRLINYEMSKRPSA
binds: all assays above
